In article doi:10.1101/2025.06.20.660715:
No constants are given. Whether binding was seen depends on the method and setting. In cells and extracts the contact can be indirect. Some binding calls cover weakened binding; strength is not graded here. Where a sequence is shown, tags or fusion partners need not be part of it.

Amino acid sequences for entries named in this document (tags omitted).
UniProt P62993: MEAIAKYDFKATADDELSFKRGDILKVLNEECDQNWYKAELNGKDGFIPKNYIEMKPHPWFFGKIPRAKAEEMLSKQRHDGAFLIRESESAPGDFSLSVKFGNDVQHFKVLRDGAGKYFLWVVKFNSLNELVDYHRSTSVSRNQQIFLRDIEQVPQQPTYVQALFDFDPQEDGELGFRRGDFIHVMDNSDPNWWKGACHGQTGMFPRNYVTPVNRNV

Target: T1, mCherry-tagged GAB1 (UniProt Q13480)
T1 sequence: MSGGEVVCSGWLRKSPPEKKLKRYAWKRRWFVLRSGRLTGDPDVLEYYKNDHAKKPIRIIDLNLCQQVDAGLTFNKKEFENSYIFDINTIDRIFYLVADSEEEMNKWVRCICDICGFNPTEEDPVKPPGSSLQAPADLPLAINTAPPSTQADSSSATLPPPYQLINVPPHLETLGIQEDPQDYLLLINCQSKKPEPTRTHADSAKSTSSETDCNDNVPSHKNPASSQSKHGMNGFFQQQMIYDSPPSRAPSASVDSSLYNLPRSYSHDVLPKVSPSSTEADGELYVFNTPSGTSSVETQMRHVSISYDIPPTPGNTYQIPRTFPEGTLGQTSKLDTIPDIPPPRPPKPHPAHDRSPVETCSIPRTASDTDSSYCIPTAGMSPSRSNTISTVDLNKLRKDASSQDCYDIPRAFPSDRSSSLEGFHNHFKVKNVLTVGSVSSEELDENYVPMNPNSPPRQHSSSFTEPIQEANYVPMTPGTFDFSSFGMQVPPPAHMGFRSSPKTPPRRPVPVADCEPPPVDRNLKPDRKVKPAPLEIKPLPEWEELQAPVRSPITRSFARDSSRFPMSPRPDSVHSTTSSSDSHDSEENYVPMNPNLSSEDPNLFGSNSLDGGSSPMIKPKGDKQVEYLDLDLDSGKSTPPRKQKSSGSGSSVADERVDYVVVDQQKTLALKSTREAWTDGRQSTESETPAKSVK
Assay: co-IP

| binding | Substance |
| --- | --- |
| binds | EGFR (from UniProt P00533 25-1210) (receptor) |
| binds | GRB2 (from UniProt P62993 1-217) |
